Experimental data taken from the supplement of paper PMC12823440, “Inhibitors supercharge kinase turnover through native proteolytic circuits” (Nature, 2025).
Some of the results follow. Hit calls seldom repeat between salt and free forms of one compound.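 Kinases, fused to nanoluciferase, were expressed in K562 cells; luminescence was measured every 4 h from 2 to 18 h as percent of control (DMSO = 100%, positive control = 0%). A time point is decreased if signal falls significantly (2 sigma). Hits were called by the authors by a rule that is not shown; the count of time points alone does not decide it.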

The chains behind the UniProt entries cited, without tags or fusion partners. Where a name states a change or a piece, a line headed by the entry shows the natural chain unless it says otherwise.
UniProt Q9Y616: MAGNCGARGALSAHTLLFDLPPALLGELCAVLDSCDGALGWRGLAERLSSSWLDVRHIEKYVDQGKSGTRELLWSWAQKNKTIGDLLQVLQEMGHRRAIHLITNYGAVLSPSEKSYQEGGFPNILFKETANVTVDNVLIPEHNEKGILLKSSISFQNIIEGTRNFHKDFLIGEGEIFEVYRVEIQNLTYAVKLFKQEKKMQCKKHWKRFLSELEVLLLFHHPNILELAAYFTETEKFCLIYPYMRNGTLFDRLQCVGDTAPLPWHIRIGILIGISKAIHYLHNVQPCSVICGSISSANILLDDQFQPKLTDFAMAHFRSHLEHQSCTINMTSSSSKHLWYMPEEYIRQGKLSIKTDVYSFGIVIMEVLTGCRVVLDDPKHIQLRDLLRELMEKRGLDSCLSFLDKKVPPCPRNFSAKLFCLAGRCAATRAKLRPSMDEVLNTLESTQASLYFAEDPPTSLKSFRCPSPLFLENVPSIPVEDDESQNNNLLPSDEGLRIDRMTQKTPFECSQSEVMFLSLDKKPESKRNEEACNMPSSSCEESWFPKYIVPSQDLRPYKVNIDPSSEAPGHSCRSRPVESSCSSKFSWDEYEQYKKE
UniProt P23458: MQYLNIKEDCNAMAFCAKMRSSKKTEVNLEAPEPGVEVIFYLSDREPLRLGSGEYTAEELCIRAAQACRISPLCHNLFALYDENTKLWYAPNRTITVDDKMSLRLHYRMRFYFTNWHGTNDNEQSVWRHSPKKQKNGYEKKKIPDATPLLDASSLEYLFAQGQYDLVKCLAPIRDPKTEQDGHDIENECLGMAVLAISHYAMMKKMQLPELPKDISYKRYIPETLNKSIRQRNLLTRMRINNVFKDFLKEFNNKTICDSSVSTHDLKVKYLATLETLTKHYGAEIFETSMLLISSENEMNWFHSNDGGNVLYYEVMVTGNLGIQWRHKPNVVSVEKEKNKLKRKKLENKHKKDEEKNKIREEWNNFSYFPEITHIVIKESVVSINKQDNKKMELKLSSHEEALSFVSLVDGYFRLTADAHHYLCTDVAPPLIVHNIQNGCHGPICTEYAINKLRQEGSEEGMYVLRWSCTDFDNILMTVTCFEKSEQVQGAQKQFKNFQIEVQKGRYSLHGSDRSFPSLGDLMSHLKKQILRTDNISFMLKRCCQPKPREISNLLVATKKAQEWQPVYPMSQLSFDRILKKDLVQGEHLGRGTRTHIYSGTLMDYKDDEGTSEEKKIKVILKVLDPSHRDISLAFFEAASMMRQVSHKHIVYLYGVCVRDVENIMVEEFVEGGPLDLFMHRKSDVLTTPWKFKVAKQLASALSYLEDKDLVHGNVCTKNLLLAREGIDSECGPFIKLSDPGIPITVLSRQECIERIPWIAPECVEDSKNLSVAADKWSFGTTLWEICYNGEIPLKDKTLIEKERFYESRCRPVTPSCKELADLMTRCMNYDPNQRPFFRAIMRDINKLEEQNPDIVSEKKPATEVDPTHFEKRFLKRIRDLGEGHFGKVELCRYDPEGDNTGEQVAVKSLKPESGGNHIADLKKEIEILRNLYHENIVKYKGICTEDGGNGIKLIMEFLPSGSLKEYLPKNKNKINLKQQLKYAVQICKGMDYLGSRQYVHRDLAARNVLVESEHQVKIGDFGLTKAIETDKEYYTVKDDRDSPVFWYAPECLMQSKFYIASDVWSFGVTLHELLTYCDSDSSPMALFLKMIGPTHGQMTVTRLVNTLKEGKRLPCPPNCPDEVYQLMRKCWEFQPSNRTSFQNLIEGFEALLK
UniProt P06239: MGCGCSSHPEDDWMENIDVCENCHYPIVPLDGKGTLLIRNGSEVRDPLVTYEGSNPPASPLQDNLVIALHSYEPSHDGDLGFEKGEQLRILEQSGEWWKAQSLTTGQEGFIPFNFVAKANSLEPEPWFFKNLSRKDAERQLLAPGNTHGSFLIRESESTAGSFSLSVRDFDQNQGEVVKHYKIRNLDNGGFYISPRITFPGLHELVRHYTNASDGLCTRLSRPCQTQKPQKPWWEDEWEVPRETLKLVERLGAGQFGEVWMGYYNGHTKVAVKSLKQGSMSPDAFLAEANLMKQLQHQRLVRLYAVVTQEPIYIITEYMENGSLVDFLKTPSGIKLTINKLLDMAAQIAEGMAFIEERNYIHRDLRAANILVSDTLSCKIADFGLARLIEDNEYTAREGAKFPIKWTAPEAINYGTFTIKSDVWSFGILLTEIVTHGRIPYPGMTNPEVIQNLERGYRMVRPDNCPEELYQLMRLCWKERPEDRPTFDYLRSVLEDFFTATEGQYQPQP
UniProt P53667: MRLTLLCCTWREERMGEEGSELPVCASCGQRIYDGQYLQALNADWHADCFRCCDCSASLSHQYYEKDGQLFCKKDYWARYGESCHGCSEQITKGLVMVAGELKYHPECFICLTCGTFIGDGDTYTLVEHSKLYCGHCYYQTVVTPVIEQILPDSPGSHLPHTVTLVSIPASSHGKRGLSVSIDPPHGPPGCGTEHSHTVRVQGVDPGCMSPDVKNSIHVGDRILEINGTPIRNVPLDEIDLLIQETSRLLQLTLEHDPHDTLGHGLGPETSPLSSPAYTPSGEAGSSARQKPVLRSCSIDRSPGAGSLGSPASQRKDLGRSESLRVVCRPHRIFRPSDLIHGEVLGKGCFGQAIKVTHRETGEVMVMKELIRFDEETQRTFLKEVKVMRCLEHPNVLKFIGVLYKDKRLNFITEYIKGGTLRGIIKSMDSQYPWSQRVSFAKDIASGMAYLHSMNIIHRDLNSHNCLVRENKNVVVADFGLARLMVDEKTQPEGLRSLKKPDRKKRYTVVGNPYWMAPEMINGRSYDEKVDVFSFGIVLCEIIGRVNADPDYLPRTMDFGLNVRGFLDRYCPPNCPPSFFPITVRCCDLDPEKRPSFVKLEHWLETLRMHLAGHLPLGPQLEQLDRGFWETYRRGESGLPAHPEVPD
UniProt P53671: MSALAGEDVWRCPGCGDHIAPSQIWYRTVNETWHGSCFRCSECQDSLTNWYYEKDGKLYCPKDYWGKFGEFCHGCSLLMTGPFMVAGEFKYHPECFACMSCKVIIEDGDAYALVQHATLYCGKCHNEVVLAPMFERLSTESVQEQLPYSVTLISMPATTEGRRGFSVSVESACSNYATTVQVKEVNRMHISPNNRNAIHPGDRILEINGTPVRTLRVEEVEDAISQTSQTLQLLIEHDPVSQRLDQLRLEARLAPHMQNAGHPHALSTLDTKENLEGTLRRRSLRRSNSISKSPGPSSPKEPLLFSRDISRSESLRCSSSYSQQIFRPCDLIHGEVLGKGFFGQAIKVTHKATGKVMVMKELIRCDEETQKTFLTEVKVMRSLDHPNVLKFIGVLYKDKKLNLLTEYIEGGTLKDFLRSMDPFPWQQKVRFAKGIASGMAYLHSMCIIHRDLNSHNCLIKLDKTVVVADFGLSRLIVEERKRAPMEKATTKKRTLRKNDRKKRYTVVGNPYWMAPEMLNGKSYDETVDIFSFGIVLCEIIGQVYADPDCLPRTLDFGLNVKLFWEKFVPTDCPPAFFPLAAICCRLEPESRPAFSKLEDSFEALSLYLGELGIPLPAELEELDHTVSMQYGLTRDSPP
UniProt Q8IWU2: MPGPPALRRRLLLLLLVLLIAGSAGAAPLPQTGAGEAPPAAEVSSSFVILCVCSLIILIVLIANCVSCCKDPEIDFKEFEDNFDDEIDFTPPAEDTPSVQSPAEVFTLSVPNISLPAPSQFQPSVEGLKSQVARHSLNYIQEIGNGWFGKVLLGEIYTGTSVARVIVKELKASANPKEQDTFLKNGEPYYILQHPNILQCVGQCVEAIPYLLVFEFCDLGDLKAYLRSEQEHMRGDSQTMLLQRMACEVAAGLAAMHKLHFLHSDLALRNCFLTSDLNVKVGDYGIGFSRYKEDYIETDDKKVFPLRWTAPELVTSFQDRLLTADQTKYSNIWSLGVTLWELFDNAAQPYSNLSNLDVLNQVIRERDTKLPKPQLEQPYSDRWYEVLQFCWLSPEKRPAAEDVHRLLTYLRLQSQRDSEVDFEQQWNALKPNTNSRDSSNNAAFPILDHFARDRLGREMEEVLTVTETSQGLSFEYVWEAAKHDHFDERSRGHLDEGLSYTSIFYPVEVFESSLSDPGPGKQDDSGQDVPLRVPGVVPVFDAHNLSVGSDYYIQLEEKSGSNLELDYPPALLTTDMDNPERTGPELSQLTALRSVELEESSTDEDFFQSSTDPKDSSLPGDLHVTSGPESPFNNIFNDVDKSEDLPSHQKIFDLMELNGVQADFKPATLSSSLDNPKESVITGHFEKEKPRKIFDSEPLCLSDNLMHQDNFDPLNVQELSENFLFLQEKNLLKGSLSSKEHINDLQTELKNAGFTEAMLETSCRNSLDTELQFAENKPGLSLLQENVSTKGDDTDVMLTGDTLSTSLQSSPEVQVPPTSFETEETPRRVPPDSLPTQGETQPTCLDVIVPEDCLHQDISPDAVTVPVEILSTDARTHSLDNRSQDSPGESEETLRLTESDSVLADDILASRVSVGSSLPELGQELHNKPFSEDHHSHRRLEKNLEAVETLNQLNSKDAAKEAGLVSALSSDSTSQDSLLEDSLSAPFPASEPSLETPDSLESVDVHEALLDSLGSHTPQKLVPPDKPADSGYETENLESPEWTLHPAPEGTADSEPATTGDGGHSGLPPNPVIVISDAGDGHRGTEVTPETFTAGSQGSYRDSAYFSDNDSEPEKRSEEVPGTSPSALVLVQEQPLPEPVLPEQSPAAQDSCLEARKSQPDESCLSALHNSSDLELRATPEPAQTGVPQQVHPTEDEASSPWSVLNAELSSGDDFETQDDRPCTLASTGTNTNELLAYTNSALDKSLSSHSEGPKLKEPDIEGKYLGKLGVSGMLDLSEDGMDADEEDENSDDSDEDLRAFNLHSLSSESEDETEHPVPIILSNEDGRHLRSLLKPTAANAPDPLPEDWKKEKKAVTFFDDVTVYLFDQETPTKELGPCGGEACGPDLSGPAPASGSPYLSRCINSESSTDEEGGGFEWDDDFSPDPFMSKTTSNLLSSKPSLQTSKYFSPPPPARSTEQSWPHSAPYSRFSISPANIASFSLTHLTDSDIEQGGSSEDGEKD
UniProt P07948: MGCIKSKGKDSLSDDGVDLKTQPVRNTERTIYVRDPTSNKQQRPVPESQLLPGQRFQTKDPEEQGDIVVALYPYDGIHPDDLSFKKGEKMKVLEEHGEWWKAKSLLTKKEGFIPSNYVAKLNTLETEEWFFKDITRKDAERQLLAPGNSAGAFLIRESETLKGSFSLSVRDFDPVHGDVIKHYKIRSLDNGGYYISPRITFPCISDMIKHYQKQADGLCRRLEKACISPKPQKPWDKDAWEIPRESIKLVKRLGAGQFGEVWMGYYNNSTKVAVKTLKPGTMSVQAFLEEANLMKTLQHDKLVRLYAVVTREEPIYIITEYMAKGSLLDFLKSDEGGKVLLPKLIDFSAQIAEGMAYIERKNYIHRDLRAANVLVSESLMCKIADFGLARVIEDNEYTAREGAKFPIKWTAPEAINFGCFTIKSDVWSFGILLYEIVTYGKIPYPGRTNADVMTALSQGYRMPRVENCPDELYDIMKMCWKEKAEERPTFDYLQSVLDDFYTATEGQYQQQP
UniProt Q12851: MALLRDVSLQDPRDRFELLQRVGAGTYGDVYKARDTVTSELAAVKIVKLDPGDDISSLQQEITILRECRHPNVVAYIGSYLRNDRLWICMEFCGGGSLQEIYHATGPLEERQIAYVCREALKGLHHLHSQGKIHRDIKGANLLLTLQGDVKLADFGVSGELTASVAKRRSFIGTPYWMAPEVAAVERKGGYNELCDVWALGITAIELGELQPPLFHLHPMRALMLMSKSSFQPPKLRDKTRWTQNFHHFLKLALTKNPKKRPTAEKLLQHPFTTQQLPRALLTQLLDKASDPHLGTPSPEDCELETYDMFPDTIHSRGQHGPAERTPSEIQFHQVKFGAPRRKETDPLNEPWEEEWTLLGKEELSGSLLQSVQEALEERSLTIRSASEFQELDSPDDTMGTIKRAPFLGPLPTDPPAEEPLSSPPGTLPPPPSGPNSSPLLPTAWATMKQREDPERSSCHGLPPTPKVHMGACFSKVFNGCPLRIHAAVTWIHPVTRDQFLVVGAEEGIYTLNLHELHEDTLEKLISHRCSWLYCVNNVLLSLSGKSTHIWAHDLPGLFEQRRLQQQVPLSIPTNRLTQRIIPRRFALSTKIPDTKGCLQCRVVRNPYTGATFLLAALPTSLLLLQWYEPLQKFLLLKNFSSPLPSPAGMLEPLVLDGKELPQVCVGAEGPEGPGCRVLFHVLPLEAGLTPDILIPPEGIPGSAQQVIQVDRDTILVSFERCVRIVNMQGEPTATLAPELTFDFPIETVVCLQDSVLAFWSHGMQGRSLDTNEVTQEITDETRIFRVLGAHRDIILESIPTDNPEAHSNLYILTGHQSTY

Experiments:
Experiment in all cases: kinase-Nluc reporter destabilization hit call (1 = scored as downregulated) (binary); higher = compound decreases kinase abundance
Settings in all cases: K562; 2-18 h
IRAK3 = IRAK3 (UniProt Q9Y616)
JAK1 = JAK1 (UniProt P23458)
LCK = LCK (UniProt P06239)
LIMK1 = LIMK1 (UniProt P53667)
LIMK2 = LIMK2 (UniProt P53671)
LMTK2 = LMTK2 (UniProt Q8IWU2)
LYN = LYN (UniProt P07948)
MAP2K1 = MAP2K1 (UniProt Q02750)
MAP2K2 = MAP2K2 (UniProt P36507)
MAP4K2 = MAP4K2 (UniProt Q12851)

Measured: kinase-Nluc reporter destabilization hit call

O=C(Nc1ccc(Cl)cc1)C1CCCN(C(=O)c2cc(C(F)(F)F)cc(C(F)(F)F)c2)C1 (stereo not given) (10 µM)
inactive: IRAK3 = 0 | JAK1 = 0 | LCK 0 | LIMK1 = 0 | LIMK2 = 0 | LMTK2 = 0 | LYN 0 | MAP2K1 = 0 | MAP2K2 = 0 | MAP4K2 = 0

CC(C)CCN1c2nc(Nc3cc(F)c(O)c(F)c3)ncc2N(C)C(=O)C1C (stereo not given) (2.5 µM)
inactive: IRAK3 = 0 | JAK1 = 0 | LCK 0 | LIMK1 = 0 | LIMK2 = 0 | LMTK2 = 0 | LYN 0 | MAP2K1 = 0 | MAP2K2 = 0 | MAP4K2 = 0

O=C(Nc1cccnc1)c1cc(-c2ccnc(F)c2)ccc1OCc1ccccc1 (10 µM)
inactive: IRAK3 = 0 | JAK1 = 0 | LCK 0 | LIMK1 = 0 | LIMK2 = 0 | LMTK2 = 0 | LYN 0 | MAP2K1 = 0 | MAP2K2 = 0 | MAP4K2 = 0

O=C1Nc2ccc(CN3C(=O)CSC3=O)cc2/C1=C/c1cc(CN2CCOCC2)c[nH]1 (10 µM)
inactive: IRAK3 = 0 | JAK1 = 0 | LCK 0 | LIMK1 = 0 | LIMK2 = 0 | LMTK2 = 0 | LYN 0 | MAP2K1 = 0 | MAP2K2 = 0 | MAP4K2 = 0

O=C1CC[C@H](NC(=O)Cc2ccccc2)C(=O)N1 [Antineoplaston A10] (10 µM)
inactive: IRAK3 = 0 | JAK1 = 0 | LCK 0 | LIMK1 = 0 | LIMK2 = 0 | LMTK2 = 0 | LYN 0 | MAP2K1 = 0 | MAP2K2 = 0 | MAP4K2 = 0

C[C@@H]1O[C@@H](Oc2cc(O)c3c(=O)c(O[C@@H]4O[C@@H](C)[C@H](O)[C@@H](O)[C@H]4O)c(-c4ccc(O)cc4)oc3c2)[C@H](O)[C@H](O)[C@H]1O [Kaempferitrin] (10 µM)
inactive: IRAK3 = 0 | JAK1 = 0 | LCK 0 | LIMK1 = 0 | LIMK2 = 0 | LMTK2 = 0 | LYN 0 | MAP2K1 = 0 | MAP2K2 = 0 | MAP4K2 = 0

COC(=O)Nc1ccc(-c2nc(N3CCOCC3)c3cnn(C4CCN(Cc5cccnc5)CC4)c3n2)cc1 (10 µM)
inactive: IRAK3 = 0 | JAK1 = 0 | LCK 0 | LIMK1 = 0 | LIMK2 = 0 | LMTK2 = 0 | LYN 0 | MAP2K1 = 0 | MAP2K2 = 0 | MAP4K2 = 0

O=c1c2c([nH]n1-c1nc3ccccc3s1)CCCC2 (10 µM)
inactive: IRAK3 = 0 | JAK1 = 0 | LCK 0 | LIMK1 = 0 | LIMK2 = 0 | LMTK2 = 0 | LYN 0 | MAP2K1 = 0 | MAP2K2 = 0 | MAP4K2 = 0

COc1cc2ncnc(Oc3ccc(CC(=O)Nc4cnn(C(C)C)c4)cc3)c2cc1OC (10 µM)
inactive: IRAK3 = 0 | JAK1 = 0 | LCK 0 | LIMK1 = 0 | LIMK2 = 0 | LMTK2 = 0 | LYN 0 | MAP2K1 = 0 | MAP2K2 = 0 | MAP4K2 = 0

c1nn(C2CCOCC2)cc1Nc1ncc2nnn(-c3ccc4cn[nH]c4c3)c2n1 (10 µM)
inactive: IRAK3 = 0 | JAK1 = 0 | LCK 0 | LIMK1 = 0 | LIMK2 = 0 | LMTK2 = 0 | LYN 0 | MAP2K1 = 0 | MAP2K2 = 0 | MAP4K2 = 0

COc1cc2ncnc(Nc3cccc(I)c3)c2cc1OC (2.5 µM)
inactive: IRAK3 = 0 | JAK1 = 0 | LCK 0 | LIMK1 = 0 | LIMK2 = 0 | LMTK2 = 0 | LYN 0 | MAP2K1 = 0 | MAP2K2 = 0 | MAP4K2 = 0

O=c1cc(N2CCOCC2)oc2c(-c3ccc4c(c3)OCCO4)csc12 (2.5 µM)
inactive: IRAK3 = 0 | JAK1 = 0 | LCK 0 | LIMK1 = 0 | LIMK2 = 0 | LMTK2 = 0 | LYN 0 | MAP2K1 = 0 | MAP2K2 = 0 | MAP4K2 = 0

CCc1c[nH]c2ncnc(N3CC[C@](N)(CNC(=O)c4ccc(F)cc4F)C3)c12 (10 µM)
inactive: IRAK3 = 0 | JAK1 = 0 | LCK 0 | LIMK1 = 0 | LIMK2 = 0 | LMTK2 = 0 | LYN 0 | MAP2K1 = 0 | MAP2K2 = 0 | MAP4K2 = 0

C=CC(=O)N1CC[C@@H](Oc2nc(Nc3ccc(N4CCC(N5CCN(C)CC5)CC4)cc3)c(C(N)=O)nc2CC)C1 [Naquotinib (mesylate)] (2.5 µM)
inactive: IRAK3 = 0 | JAK1 = 0 | LCK 0 | LIMK1 = 0 | LIMK2 = 0 | LMTK2 = 0 | LYN 0 | MAP2K1 = 0 | MAP2K2 = 0 | MAP4K2 = 0

Cn1c(CNc2cccc(C(=O)NCc3ccccc3C(F)(F)F)c2)nnc1-c1ccncc1 (10 µM)
inactive: IRAK3 = 0 | JAK1 = 0 | LCK 0 | LIMK1 = 0 | LIMK2 = 0 | LMTK2 = 0 | LYN 0 | MAP2K1 = 0 | MAP2K2 = 0 | MAP4K2 = 0

COc1ccc(Nc2ncc(C(F)(F)F)c(NC3CC3)n2)cc1OC (10 µM)
inactive: IRAK3 = 0 | JAK1 = 0 | LCK 0 | LIMK1 = 0 | LIMK2 = 0 | LMTK2 = 0 | LYN 0 | MAP2K1 = 0 | MAP2K2 = 0 | MAP4K2 = 0

Nc1nc2c(nc(Br)n2[C@@H]2O[C@@H]3COP(=O)(O)O[C@H]3[C@H]2O)c(=O)[nH]1 [8-Bromo-cGMP (sodium)] (10 µM)
inactive: IRAK3 = 0 | JAK1 = 0 | LCK 0 | LIMK1 = 0 | LIMK2 = 0 | LMTK2 = 0 | LYN 0 | MAP2K1 = 0 | MAP2K2 = 0 | MAP4K2 = 0

Cc1cc(-n2c(=O)ccc3c[nH]c4nccc-4c32)ccc1F (10 µM)
inactive: IRAK3 = 0 | JAK1 = 0 | LCK 0 | LIMK1 = 0 | LIMK2 = 0 | LMTK2 = 0 | LYN 0 | MAP2K1 = 0 | MAP2K2 = 0 | MAP4K2 = 0

C[C@H]1O[C@@H](O[C@H]2CC[C@@]3(C)[C@@H](CC[C@]4(C)[C@@H]3C=C[C@]35OC[C@@]6(CCC(C)(C)C[C@H]63)[C@H](O)C[C@]54C)[C@]2(C)CO)[C@H](O)[C@@H](O[C@@H]2O[C@H](CO)[C@@H](O)[C@H](O)[C@H]2O)[C@H]1O [Saikosaponin D] (2.5 µM)
inactive: IRAK3 = 0 | JAK1 = 0 | LCK 0 | LIMK1 = 0 | LIMK2 = 0 | LMTK2 = 0 | LYN 0 | MAP2K1 = 0 | MAP2K2 = 0 | MAP4K2 = 0

COCCOCCc1c(C)c2cc(OC)c(O)c(C=O)c2oc1=O (10 µM)
inactive: IRAK3 = 0 | JAK1 = 0 | LCK 0 | LIMK1 = 0 | LIMK2 = 0 | LMTK2 = 0 | LYN 0 | MAP2K1 = 0 | MAP2K2 = 0 | MAP4K2 = 0

O=Nc1c(-c2c(O)[nH]c3cc(Br)ccc23)[nH]c2ccccc12 [GSK 3 Inhibitor IX] (2.5 µM)
inactive: IRAK3 = 0 | JAK1 = 0 | LCK 0 | LIMK1 = 0 | LIMK2 = 0 | LMTK2 = 0 | LYN 0 | MAP2K1 = 0 | MAP2K2 = 0 | MAP4K2 = 0

C[C@@H](Nc1ncnc2[nH]c(-c3ccc(O)cc3)cc12)c1ccccc1 (2.5 µM)
inactive: IRAK3 = 0 | JAK1 = 0 | LCK 0 | LIMK1 = 0 | LIMK2 = 0 | LMTK2 = 0 | LYN 0 | MAP2K1 = 0 | MAP2K2 = 0 | MAP4K2 = 0

COc1cc2c(cc1Nc1ncc(C(N)=O)c(Nc3c(F)cccc3C(F)(F)F)n1)CN(C)CC2 (2.5 µM)
inactive: IRAK3 = 0 | JAK1 = 0 | LCK 0 | LIMK1 = 0 | LIMK2 = 0 | LMTK2 = 0 | LYN 0 | MAP2K1 = 0 | MAP2K2 = 0 | MAP4K2 = 0

O=C(O)[C@H]1O[C@@H](Oc2cc3oc(-c4ccc(O)cc4)cc(=O)c3c(O)c2O)[C@H](O)[C@@H](O)[C@@H]1O [Scutellarin] (10 µM)
inactive: IRAK3 = 0 | JAK1 = 0 | LCK 0 | LIMK1 = 0 | LIMK2 = 0 | LMTK2 = 0 | LYN 0 | MAP2K1 = 0 | MAP2K2 = 0 | MAP4K2 = 0

Cn1ncc(NC(=O)c2nc(-c3c(F)cccc3F)sc2N)c1N1CC[C@@H](N)[C@H](F)CC1 (10 µM)
inactive: IRAK3 = 0 | JAK1 = 0 | LCK 0 | LIMK1 = 0 | LIMK2 = 0 | LMTK2 = 0 | LYN 0 | MAP2K1 = 0 | MAP2K2 = 0 | MAP4K2 = 0

COc1cc(-c2cc(-c3ccc(N4CCNCC4)cc3)cnc2C)cc(OC)c1OC (10 µM)
inactive: IRAK3 = 0 | JAK1 = 0 | LCK 0 | LIMK1 = 0 | LIMK2 = 0 | LMTK2 = 0 | LYN 0 | MAP2K1 = 0 | MAP2K2 = 0 | MAP4K2 = 0

Random excerpt: 2 entries already listed, in no set order.
COc1ccc(Nc2ncc(C(F)(F)F)c(NC3CC3)n2)cc1OC (10 µM)
inactive: IRAK3 = 0 | JAK1 = 0 | LCK 0 | LIMK1 = 0 | LIMK2 = 0 | LMTK2 = 0 | LYN 0 | MAP2K1 = 0 | MAP2K2 = 0 | MAP4K2 = 0

COC(=O)Nc1ccc(-c2nc(N3CCOCC3)c3cnn(C4CCN(Cc5cccnc5)CC4)c3n2)cc1 (10 µM)
inactive: IRAK3 = 0 | JAK1 = 0 | LCK 0 | LIMK1 = 0 | LIMK2 = 0 | LMTK2 = 0 | LYN 0 | MAP2K1 = 0 | MAP2K2 = 0 | MAP4K2 = 0

More records:

COc1cc(N2CCC(N3CCN(C)CC3)CC2)ccc1Nc1ncc(Cl)c(-c2c[nH]c3ccccc23)n1 (2.5 µM)
inactive: IRAK3 = 0 | JAK1 = 0 | LCK 0 | LIMK1 = 0 | LIMK2 = 0 | LMTK2 = 0 | LYN 0 | MAP2K1 = 0 | MAP2K2 = 0 | MAP4K2 = 0

CNC(=O)CNc1cnc2ccc(-c3ccc(OC)c(OC)c3)cc2n1 (10 µM)
inactive: IRAK3 = 0 | JAK1 = 0 | LCK 0 | LIMK1 = 0 | LIMK2 = 0 | LMTK2 = 0 | LYN 0 | MAP2K1 = 0 | MAP2K2 = 0 | MAP4K2 = 0

Cc1cc(C(=O)NOCCO)c(Nc2ccc(I)cc2F)n(C)c1=O (10 µM)
inactive: IRAK3 = 0 | JAK1 = 0 | LCK 0 | LIMK1 = 0 | LIMK2 = 0 | LMTK2 = 0 | LYN 0 | MAP2K1 = 0 | MAP2K2 = 0 | MAP4K2 = 0
